Source: article PMC12781089
Results are given in words; binding and its absence hold for the method and conditions named. For some assays here: Binding seen in cells or lysates may run through a third protein. Some results given as binding are weak or reduced against the parent protein; the word gives no strength.

The chains behind the UniProt entries cited, without tags or fusion partners. Residues count along the entry.
UniProt P11881: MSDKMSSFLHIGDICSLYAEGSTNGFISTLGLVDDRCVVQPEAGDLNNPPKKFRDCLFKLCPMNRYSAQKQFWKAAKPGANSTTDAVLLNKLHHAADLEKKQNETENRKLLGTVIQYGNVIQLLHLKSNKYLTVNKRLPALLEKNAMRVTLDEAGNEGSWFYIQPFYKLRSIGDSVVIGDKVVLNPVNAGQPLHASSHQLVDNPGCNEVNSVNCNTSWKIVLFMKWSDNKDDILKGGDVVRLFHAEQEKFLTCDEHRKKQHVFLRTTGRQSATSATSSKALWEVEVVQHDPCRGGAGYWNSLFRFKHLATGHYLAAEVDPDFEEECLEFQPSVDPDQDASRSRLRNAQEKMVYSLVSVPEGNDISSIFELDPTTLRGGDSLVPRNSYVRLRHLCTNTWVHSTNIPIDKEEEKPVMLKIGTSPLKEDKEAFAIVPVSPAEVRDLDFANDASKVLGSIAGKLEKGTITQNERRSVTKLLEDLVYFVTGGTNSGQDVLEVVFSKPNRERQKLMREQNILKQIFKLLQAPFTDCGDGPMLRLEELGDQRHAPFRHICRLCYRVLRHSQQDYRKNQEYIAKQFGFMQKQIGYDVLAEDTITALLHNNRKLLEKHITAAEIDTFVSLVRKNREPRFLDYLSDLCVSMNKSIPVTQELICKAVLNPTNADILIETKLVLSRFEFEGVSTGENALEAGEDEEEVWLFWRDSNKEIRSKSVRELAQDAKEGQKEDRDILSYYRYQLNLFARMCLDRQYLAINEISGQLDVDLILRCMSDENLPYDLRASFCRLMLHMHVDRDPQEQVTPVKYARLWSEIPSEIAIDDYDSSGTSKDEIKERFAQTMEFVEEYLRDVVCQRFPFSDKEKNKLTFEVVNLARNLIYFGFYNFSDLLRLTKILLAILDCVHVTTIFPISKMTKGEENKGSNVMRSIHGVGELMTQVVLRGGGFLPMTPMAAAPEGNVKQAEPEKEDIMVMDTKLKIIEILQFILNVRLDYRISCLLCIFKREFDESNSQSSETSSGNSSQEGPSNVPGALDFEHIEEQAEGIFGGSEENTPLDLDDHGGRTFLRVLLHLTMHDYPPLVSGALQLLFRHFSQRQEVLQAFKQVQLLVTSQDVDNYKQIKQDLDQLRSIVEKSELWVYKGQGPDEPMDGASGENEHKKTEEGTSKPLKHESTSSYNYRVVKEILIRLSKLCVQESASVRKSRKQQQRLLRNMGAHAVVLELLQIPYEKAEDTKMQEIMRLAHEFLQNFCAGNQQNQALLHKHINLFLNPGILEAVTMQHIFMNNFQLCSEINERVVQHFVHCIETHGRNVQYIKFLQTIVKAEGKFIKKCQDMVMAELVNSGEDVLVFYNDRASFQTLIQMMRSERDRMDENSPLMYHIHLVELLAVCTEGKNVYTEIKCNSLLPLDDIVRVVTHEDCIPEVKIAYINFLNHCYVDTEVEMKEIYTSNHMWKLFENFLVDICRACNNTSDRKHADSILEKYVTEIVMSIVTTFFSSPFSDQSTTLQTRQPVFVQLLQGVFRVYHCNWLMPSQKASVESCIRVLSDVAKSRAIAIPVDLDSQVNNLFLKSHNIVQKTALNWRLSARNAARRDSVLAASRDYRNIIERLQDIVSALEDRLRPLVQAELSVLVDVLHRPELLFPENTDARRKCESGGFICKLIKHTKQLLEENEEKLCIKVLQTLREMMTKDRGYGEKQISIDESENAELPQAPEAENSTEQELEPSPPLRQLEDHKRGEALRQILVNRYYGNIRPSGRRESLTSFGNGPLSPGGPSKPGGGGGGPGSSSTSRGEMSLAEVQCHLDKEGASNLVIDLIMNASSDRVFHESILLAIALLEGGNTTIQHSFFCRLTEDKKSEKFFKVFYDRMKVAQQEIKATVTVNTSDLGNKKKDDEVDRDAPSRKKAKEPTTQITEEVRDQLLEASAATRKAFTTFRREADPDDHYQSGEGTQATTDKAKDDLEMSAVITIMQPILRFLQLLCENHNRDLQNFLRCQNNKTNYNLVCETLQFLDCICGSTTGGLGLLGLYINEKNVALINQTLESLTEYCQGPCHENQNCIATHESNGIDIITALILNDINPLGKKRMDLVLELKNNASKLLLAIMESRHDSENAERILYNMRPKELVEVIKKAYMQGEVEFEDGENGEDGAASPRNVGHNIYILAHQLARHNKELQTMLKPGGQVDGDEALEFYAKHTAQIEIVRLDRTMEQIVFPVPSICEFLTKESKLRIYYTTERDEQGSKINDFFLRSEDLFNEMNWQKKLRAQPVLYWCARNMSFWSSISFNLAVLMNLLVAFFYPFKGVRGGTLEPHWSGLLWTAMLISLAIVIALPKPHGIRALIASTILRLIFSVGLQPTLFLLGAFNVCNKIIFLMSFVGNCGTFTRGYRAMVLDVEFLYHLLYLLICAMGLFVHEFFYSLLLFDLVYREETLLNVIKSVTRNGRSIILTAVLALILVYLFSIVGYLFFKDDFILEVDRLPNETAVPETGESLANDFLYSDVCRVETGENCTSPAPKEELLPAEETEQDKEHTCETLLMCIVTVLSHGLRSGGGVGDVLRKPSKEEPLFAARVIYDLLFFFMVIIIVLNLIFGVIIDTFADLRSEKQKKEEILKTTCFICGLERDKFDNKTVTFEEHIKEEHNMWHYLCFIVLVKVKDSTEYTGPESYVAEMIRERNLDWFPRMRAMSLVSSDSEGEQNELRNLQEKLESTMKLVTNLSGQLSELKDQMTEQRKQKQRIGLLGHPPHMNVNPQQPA
UniProt O60260: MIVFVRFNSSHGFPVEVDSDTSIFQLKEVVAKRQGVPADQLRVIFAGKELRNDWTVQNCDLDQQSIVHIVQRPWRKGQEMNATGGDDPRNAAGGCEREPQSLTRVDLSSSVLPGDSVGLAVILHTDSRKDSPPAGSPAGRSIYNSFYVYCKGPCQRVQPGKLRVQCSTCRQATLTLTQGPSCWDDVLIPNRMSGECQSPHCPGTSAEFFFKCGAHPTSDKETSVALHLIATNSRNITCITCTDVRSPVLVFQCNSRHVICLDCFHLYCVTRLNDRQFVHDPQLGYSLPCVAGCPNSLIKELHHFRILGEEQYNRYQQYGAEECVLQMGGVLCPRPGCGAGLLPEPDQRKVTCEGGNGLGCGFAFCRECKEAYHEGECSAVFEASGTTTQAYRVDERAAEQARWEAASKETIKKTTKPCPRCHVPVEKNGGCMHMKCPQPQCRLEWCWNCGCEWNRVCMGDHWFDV
UniProt P38647, residues 47-679: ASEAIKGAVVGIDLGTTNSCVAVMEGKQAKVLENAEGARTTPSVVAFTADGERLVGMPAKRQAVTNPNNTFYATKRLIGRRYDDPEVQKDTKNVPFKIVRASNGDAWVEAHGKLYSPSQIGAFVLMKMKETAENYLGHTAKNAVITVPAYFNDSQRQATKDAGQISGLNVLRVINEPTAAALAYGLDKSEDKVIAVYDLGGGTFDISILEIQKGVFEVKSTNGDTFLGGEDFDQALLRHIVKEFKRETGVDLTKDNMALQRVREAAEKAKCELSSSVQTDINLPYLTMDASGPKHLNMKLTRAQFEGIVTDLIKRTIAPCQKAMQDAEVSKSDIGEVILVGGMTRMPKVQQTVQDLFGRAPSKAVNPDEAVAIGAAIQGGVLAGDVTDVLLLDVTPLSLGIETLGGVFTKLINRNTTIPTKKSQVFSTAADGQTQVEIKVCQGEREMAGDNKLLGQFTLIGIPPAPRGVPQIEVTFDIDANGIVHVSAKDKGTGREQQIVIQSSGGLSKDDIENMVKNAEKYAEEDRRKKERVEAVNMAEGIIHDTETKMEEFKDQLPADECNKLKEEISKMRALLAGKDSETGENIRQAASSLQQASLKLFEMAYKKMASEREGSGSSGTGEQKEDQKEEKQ
UniProt P21796: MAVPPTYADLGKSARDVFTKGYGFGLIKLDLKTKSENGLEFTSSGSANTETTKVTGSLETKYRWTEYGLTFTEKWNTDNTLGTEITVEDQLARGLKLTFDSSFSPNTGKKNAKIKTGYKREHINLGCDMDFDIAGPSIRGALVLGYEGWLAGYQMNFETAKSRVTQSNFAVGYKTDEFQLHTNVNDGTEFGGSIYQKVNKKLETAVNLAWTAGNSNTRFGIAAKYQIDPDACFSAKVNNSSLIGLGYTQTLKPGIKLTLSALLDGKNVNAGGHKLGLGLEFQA
UniProt P38646, residues 47-679: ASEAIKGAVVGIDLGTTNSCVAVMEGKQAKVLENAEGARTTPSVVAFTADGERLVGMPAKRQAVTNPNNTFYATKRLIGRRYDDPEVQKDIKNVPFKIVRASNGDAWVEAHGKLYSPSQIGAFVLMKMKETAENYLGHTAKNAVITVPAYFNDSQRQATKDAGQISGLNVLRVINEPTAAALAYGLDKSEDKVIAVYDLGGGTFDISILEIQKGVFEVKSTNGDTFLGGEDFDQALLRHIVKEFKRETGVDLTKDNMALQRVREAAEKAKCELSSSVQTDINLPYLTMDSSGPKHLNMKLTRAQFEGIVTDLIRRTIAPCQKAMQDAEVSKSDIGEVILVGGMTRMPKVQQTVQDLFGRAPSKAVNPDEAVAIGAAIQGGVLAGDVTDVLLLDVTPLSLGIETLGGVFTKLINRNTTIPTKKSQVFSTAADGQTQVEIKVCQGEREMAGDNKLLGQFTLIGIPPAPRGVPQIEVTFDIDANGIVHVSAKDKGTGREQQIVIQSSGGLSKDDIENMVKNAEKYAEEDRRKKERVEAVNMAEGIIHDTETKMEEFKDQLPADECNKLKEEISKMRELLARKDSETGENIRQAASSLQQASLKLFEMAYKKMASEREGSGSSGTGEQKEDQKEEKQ

How the values were obtained:
[1] = target: T1, Parkin (mouse brain) (mouse (endogenous in brain)) (UniProt Q9WVS6); assay: co-IP; Parkin antibody on Dynabeads Protein G, total lysates of ventral midbrain of mouse brain
T1 sequence: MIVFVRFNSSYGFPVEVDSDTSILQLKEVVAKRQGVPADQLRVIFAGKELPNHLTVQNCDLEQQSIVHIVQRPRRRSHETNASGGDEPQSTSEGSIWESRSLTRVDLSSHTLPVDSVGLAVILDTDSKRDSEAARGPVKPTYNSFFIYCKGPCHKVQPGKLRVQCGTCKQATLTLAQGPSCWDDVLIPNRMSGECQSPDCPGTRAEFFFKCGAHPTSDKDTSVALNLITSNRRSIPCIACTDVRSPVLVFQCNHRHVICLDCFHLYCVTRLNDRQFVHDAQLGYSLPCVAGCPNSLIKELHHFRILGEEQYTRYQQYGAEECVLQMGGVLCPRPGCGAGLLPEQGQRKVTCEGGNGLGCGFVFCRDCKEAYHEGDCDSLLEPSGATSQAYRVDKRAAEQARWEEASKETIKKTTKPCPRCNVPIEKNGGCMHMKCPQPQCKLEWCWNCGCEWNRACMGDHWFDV

[2] = target: T1, Parkin (mouse brain) (mouse (endogenous in brain)); assay: co-IP; Parkin antibody on Dynabeads Protein G, MAM fractions prepared from the ventral midbrain of mouse brain
[3] = target: T1, Parkin (mouse brain) (mouse (endogenous in brain)); assay: native gel or EMSA; BN-PAGE with immunoblot of crude mitochondria fractions from ventral midbrain of mouse brain
[4] = target: inositol-1,4,5-triphosphate receptor (IP3R), mouse brain (mouse (endogenous in brain)) (UniProt P11881); assay: as above
[5] = target: inositol-1,4,5-triphosphate receptor (IP3R), mouse brain (mouse (endogenous in brain)) (UniProt P11881); assay: co-IP; IP3R antibody on Dynabeads Protein G, brain homogenates (ventral midbrain lysates) of WT and Parkin KO mice
[6] = target: inositol-1,4,5-triphosphate receptor (IP3R) (human (endogenous in M17 and SH-SY5Y)) (UniProt Q14643); assay: co-IP; IP3R antibody on Dynabeads Protein G, lysates of control and Parkin KO M17 and SH-SY5Y cells
[7] = target: inositol-1,4,5-triphosphate receptor (IP3R) (human (endogenous in M17 and SH-SY5Y)) (UniProt Q14643); assay: proximity ligation; Duolink in situ PLA with IP3R and VDAC1 antibodies in fixed control and Parkin KO M17 and SH-SY5Y cells
[8] = target: Parkin, overexpressed wild type (Parkin OE M17 cells) (human) (UniProt O60260); assay: co-IP; Parkin antibody on Dynabeads Protein G, total NP-40 lysates of Parkin-overexpressing M17 cells, 4 C overnight; also after 2-APB (50 uM, 2 h) or CCCP (20 uM, 1 h) for IP3R
[9] = target: Parkin, overexpressed wild type (Parkin OE M17 cells) (human) (UniProt O60260); assay: native gel or EMSA; BN-PAGE (3-12% Bis-Tris) and 2D BN/SDS-PAGE with immunoblot of crude mitochondria fractions (1% NP40) from Parkin-overexpressing M17 cells; also after 2-APB or CCCP
[10] = target: inositol-1,4,5-triphosphate receptor (IP3R) (human (endogenous in M17 and SH-SY5Y)) (UniProt Q14643); assay: as above
[11] = target: Parkin (human (endogenous in M17)) (UniProt O60260); assay: proximity ligation; Duolink in situ PLA with Parkin antibody paired with IP3R, Grp75 or VDAC1 antibody in fixed control M17 cells; also after 2-APB (50 uM, 2 h) or CCCP (20 uM, 1 h) for Parkin/IP3R
[12] = target: T1, Parkin (mouse brain) (mouse (endogenous in brain)); assay: co-IP; co-IP of Parkin and IP3R from extracted ER fractions (source of the fractions not given)

Row | binding [1] | binding [2] | binding [3] | binding [4] | binding [5] | binding [6] | binding [7] | binding [8] | binding [9] | binding [10] | binding [11] | Substance | binding [12]
1 | binds | binds | binds | binds | binds | – | – | – | – | – | – | Grp75, mouse brain (from UniProt P38647 47-679) | –
2 | – | – | – | – | – | binds | binds | binds | binds | binds | binds | VDAC1 (from UniProt P21796 1-283) | –
3 | binds | binds | binds | – | – | – | – | – | – | – | – | inositol-1,4,5-triphosphate receptor (IP3R), mouse brain (from UniProt P11881 1-2749) | no binding (condition: in extracted ER fractions)
4 | – | – | – | – | – | binds | – | binds | binds | binds | binds | Grp75 (from UniProt P38646 47-679) | –
